Reference: PubChem BioAssay AID743121 (NCATS, 2013)
Aim: 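Knock-downs that sensitise breast cancer cells to camptothecin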 (primary screen). Cells: MDA-MB-231 cells, a human breast cancer line. Knock-down reagent: single siRNA against human genes, 20 nM siRNA (0.8 pmol per well). Time to read-out: 120 h (drug added 48 h after transfection, read 72 h later). Conditions: camptothecin 20 nM (about EC30) for 72 h; vehicle 0.1% DMSO in parallel plates. Measurement: 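CellTiter-Glo ATP signal, scaled to control siRNA as percent viability; sensitisation given as log2 of untreated divided by camptothecin-treated viability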. Reading the numbers: log2 vehicle/camptothecin viability: higher = stronger sensitisation to camptothecin. Active means: 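Active genes have an RSA gene-level p-value below 0.001, computed from the ratios of their separate siRNAs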.
Here is one part, drawn at random, of about 26,000 reagents. 167 of them (0.63%) count as active. 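Calls are per gene from RSA p-values that are not deposited; an individual active-marked siRNA can sensitise only weakly.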 The numbers tell different reagents against one gene apart. Further read-outs or replicates are left out here. No sequences are given here.

The first 3 entries as a preview:
VAV1 (GeneID 7409) #1 | log2 vehicle/camptothecin viability: -0.192; outcome: inactive
VAV1 (GeneID 7409) #2 | log2 vehicle/camptothecin viability: -0.134; outcome: inactive
VAV1 (GeneID 7409) #3 | log2 vehicle/camptothecin viability: -0.047; outcome: inactive

Main list, from the start:
VAV1 (GeneID 7409) #1 | log2 vehicle/camptothecin viability: -0.192; outcome: inactive
VAV1 (GeneID 7409) #2 | log2 vehicle/camptothecin viability: -0.134; outcome: inactive
VAV1 (GeneID 7409) #3 | log2 vehicle/camptothecin viability: -0.047; outcome: inactive
VAV1 (GeneID 7409) #4 | log2 vehicle/camptothecin viability: 0.157; outcome: inactive
FFAR2 (GeneID 2867) #1 | log2 vehicle/camptothecin viability: -0.568; outcome: inactive
FFAR2 (GeneID 2867) #2 | log2 vehicle/camptothecin viability: 0.0166; outcome: inactive
FFAR2 (GeneID 2867) #3 | log2 vehicle/camptothecin viability: -0.168; outcome: inactive
FFAR2 (GeneID 2867) #4 | log2 vehicle/camptothecin viability: -0.0242; outcome: inactive
FBXO5 (GeneID 26271) #1 | log2 vehicle/camptothecin viability: 0.193; outcome: inactive
FBXO5 (GeneID 26271) #2 | log2 vehicle/camptothecin viability: -0.549; outcome: inactive
FBXO5 (GeneID 26271) #3 | log2 vehicle/camptothecin viability: -0.194; outcome: inactive
FBXO5 (GeneID 26271) #4 | log2 vehicle/camptothecin viability: 0.0251; outcome: inactive
KCNQ1 (GeneID 3784) #1 | log2 vehicle/camptothecin viability: -0.123; outcome: inactive
KCNQ1 (GeneID 3784) #2 | log2 vehicle/camptothecin viability: -0.0196; outcome: inactive
KCNQ1 (GeneID 3784) #3 | log2 vehicle/camptothecin viability: 0.126; outcome: inactive
UBTD2 (GeneID 92181) #1 | log2 vehicle/camptothecin viability: 0.0611; outcome: inactive
UBTD2 (GeneID 92181) #2 | log2 vehicle/camptothecin viability: -0.197; outcome: inactive
UBTD2 (GeneID 92181) #3 | log2 vehicle/camptothecin viability: 0.0306; outcome: inactive
UBTD2 (GeneID 92181) #4 | log2 vehicle/camptothecin viability: -0.253; outcome: inactive
LRRN1 (GeneID 57633) #1 | log2 vehicle/camptothecin viability: -0.314; outcome: inactive
LRRN1 (GeneID 57633) #2 | log2 vehicle/camptothecin viability: -0.328; outcome: inactive
LRRN1 (GeneID 57633) #3 | log2 vehicle/camptothecin viability: -0.144; outcome: inactive
LRRN1 (GeneID 57633) #4 | log2 vehicle/camptothecin viability: -0.0283; outcome: inactive
RIOX1 (GeneID 79697) #1 | log2 vehicle/camptothecin viability: -0.59; outcome: inactive
RIOX1 (GeneID 79697) #2 | log2 vehicle/camptothecin viability: -0.231; outcome: inactive
RIOX1 (GeneID 79697) #3 | log2 vehicle/camptothecin viability: 0.171; outcome: inactive
RIOX1 (GeneID 79697) #4 | log2 vehicle/camptothecin viability: 0.305; outcome: inactive
PDK3 (GeneID 5165) #1 | log2 vehicle/camptothecin viability: -0.0166; outcome: inactive
PDK3 (GeneID 5165) #2 | log2 vehicle/camptothecin viability: -0.0383; outcome: inactive
PDK3 (GeneID 5165) #3 | log2 vehicle/camptothecin viability: -0.0258; outcome: inactive
PDK3 (GeneID 5165) #4 | log2 vehicle/camptothecin viability: -0.265; outcome: inactive
GABRQ (GeneID 55879) #1 | log2 vehicle/camptothecin viability: 0.087; outcome: inactive
GABRQ (GeneID 55879) #2 | log2 vehicle/camptothecin viability: -0.373; outcome: inactive
GABRQ (GeneID 55879) #3 | log2 vehicle/camptothecin viability: 0.0164; outcome: inactive
WIF1 (GeneID 11197) #1 | log2 vehicle/camptothecin viability: 0.191; outcome: inactive
WIF1 (GeneID 11197) #2 | log2 vehicle/camptothecin viability: -0.198; outcome: inactive
WIF1 (GeneID 11197) #3 | log2 vehicle/camptothecin viability: 0.149; outcome: inactive
WIF1 (GeneID 11197) #4 | log2 vehicle/camptothecin viability: -0.19; outcome: inactive
